## Library screen at single concentrations

Amino acid sequences for entries named in this document (tags omitted). Residues count along the entry.
UniProt P9WNZ1, whole entry: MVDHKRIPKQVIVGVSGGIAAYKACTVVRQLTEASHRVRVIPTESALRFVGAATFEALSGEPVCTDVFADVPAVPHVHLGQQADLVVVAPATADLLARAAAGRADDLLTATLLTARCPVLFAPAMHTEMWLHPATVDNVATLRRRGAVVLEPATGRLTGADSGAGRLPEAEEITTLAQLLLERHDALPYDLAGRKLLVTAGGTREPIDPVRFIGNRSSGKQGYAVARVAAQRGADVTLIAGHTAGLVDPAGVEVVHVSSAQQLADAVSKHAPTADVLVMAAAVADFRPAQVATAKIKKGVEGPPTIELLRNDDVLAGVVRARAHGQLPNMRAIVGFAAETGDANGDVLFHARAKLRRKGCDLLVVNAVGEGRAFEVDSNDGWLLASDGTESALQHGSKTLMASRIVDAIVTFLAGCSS
UniProt I6X8D2, whole entry: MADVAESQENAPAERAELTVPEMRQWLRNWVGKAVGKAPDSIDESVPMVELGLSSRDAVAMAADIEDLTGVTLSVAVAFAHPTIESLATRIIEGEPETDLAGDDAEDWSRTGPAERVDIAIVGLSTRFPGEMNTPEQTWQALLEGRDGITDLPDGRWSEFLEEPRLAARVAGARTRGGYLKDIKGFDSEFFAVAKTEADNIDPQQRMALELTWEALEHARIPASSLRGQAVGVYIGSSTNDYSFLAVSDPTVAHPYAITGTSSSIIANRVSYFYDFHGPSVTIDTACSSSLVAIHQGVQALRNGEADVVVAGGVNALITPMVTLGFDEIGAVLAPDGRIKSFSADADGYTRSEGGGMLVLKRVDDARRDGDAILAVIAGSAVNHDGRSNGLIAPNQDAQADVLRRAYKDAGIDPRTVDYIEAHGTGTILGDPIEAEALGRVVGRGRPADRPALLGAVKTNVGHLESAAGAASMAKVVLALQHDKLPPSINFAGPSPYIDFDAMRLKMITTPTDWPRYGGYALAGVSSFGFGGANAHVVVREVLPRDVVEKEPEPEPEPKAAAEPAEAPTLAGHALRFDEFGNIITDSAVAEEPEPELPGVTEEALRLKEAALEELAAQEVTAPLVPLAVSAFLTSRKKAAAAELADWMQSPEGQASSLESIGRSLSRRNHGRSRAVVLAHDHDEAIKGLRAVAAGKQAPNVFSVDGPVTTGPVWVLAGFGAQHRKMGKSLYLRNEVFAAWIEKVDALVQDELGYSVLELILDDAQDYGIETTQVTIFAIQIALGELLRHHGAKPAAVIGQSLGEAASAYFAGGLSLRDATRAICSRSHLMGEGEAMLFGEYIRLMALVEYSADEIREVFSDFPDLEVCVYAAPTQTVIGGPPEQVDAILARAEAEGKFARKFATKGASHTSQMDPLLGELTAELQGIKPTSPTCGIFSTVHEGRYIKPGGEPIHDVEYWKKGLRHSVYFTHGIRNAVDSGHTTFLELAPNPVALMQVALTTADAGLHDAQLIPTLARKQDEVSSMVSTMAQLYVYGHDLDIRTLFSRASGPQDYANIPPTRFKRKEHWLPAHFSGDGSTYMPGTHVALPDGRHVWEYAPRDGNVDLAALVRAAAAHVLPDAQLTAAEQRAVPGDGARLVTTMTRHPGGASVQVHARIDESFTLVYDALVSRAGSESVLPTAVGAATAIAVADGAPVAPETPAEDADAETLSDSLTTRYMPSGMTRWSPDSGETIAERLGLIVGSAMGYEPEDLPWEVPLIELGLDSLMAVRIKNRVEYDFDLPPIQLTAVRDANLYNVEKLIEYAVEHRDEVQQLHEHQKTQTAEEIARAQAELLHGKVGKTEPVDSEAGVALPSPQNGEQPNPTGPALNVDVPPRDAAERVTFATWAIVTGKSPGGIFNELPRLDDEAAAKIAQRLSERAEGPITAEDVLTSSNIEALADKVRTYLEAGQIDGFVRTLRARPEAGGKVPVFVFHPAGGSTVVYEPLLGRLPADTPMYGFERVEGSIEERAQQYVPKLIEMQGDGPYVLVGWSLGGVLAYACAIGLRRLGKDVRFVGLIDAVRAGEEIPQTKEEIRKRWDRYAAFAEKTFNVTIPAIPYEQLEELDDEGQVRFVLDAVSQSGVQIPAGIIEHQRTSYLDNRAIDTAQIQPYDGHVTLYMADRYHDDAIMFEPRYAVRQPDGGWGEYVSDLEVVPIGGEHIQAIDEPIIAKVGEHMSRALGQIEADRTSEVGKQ
UniProt P9WPC5, whole entry: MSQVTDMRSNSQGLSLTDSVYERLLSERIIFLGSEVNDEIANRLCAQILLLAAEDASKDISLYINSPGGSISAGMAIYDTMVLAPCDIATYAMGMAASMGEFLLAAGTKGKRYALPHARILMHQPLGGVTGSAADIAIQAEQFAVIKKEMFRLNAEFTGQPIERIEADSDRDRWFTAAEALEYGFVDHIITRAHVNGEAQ
UniProt P9WPC3, whole entry partner: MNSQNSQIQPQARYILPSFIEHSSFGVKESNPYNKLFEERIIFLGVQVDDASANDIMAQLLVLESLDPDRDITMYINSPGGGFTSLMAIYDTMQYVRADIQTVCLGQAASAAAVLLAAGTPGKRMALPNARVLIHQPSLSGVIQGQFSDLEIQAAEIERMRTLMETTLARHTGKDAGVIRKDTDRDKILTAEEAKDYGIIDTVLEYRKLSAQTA
UniProt A4I591, 1-473: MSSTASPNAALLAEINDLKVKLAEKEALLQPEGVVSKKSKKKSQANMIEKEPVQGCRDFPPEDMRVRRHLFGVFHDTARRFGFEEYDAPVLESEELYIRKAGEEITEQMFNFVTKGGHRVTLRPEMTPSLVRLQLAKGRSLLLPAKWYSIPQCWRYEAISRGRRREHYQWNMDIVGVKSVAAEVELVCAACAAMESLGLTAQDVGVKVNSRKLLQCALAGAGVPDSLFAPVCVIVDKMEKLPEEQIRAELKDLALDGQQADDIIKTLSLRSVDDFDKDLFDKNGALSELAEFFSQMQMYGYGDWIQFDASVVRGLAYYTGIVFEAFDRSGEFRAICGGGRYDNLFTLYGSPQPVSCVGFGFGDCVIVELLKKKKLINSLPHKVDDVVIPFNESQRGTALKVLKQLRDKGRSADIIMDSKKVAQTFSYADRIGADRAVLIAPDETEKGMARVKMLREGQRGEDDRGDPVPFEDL
UniProt P9WFT3, whole entry: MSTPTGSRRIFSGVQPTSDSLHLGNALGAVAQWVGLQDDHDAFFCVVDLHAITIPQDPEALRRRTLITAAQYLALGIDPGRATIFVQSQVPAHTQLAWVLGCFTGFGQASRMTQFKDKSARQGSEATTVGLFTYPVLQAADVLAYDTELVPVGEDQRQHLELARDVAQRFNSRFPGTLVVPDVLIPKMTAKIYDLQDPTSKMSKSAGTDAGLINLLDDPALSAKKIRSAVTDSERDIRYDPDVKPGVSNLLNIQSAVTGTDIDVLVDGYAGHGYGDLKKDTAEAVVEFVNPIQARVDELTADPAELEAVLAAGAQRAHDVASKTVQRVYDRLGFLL

Data taken from ChEMBL document CHEMBL3988442, “University of Dundee, Small-Polar-MMV Screening Library” (2021).

Each number is a percent effect as filed.
The record does not define 0% and 100%; most values in the screen are far below 50% and negative numbers occur (in some assays of this library far below -100).
This is an unselected part of the compounds tested.
A dash means the value is not listed here; it may have been measured.

A: 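Enzyme assay of CoaBC with a phosphate dye (Biomol Green) read at 650 nm. Target: Coenzyme A biosynthesis protein CoaBC, Mycobacterium tuberculosis (UniProt P9WNZ1). Compounds at 30 µM. Direction is inferred from only a few compounds that gave an IC50; most scored high, so higher reads as stronger inhibition. Most strong results did not repeat in a second test. Size under these conditions: about 67,000 compounds, about 40 of them at 50% or above in at least one test.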
B: 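Enzyme assay of the thioesterase domain of polyketide synthase 13; the read-out is not stated. Target: Polyketide synthase Pks13, Mycobacterium tuberculosis (UniProt I6X8D2). Compounds at 30 µM. The record gives no direction; the compounds picked for IC50 retests had high values, so higher reads as stronger inhibition. Of about 67,000 compounds tested this way, about 300 (0.46%) reached 50% or more in at least one test.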
C: 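Protease assay of ClpP1P2, read by the AMC dye that it sets free. Target: ClpP1P2, Mycobacterium tuberculosis (UniProt P9WPC5 and UniProt P9WPC3). Compounds at 50 µM. Higher reads as stronger inhibition, judged from the few compounds that gave an IC50. Most other retested compounds had strongly negative values. Size under these conditions: about 69,000 compounds, about 10 of them at 50% or above in at least one test.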
D: 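Assay of Toxoplasma gondii numbers, read through their beta-galactosidase reporter with a colour substrate. Tested at 10 µM. The record gives no direction; the compounds picked for IC50 retests had high values, so higher reads as fewer parasites. About 67,000 compounds were tested under these conditions; 0.38% (about 260) showed 50% or more at least once.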
E: 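Histidine-tRNA ligase, Leishmania infantum (UniProt A4I591). Enzyme assay of histidyl-tRNA synthetase; the read-out is not stated. Tested at 30 µM. Higher reads as stronger inhibition (inferred: compounds with an IC50 in retests scored well above the rest). The assay is labelled LdHisRS but filed under L. infantum. Size under these conditions: about 69,000 compounds, about 410 of them at 50% or above in at least one test.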
F: 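Tryptophan-tRNA ligase, Mycobacterium tuberculosis (UniProt P9WFT3). Enzyme assay of tryptophanyl-tRNA synthetase; the read-out is not stated. Tested at 10 µM. Direction is not recorded; retested compounds ran higher, which suggests that high means inhibition. Size under these conditions: about 65,000 compounds, about 64 of them at 50% or above in at least one test.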

| # | SMILES | A | B | C | D | E | F |
|---|---|---|---|---|---|---|---|
| 1 | `Cc1cc2c(=O)n3c(nc2s1)CCN(Cc1ccncc1)CC3` | -0.5556 | -30.9 | -5.701 | -1.345 | 19.44 | 1.421 |
| 2 | `CCc1nc(C2CCCN(C(=O)c3cccc4cn[nH]c34)C2)no1` (stereo not shown) | 3.373 | -11.76 | -4.698 | 3.877 | 6.154 | -3.207 |
| 3 | `Cc1cc(C)c2nc(C3CC3)cc(C(=O)N3CCCC3C(N)=O)c2c1` (stereo not shown) | 0.7009 | -11.58 | -13.57 | 5.309 | 0.885 | -6.11 |
| 4 | `Cc1cc(C)c(OCC(=O)NS(=O)(=O)c2cccnc2)c(C)c1` | 2.394 | -5.631 | 8.304 | -4.517 | 10.4 | 0.7862 |
| 5 | `CCN(Cc1ccccc1)C(=O)CCN1C[C@@H](C(=O)O)[C@H](C2CC2)C1` | 1.975 | -18.98 | -12.91 | 2.193 | 8.392 | -5.951 |
| 6 | `O=S(=O)(CCCN1CCCCC1Cn1cncn1)c1ccccc1` (stereo not shown) | -8.311 | -19.92 | -16.79 | -7.579 | 17.09 | 0.3975 |
| 7 | `NC(=O)CN1CCN(S(=O)(=O)N2CCCC2c2ccco2)CC1` (stereo not shown) | -2.948 | - | 0.1629 | 24.52 | 18.25 | 3.958 |
| 8 | `CC(C)OCCOCc1cccc(NC(=O)NCc2cnn(C)c2)c1` | -1.34 | 0.4111 | -7.54 | -2.294 | -3.226 | -4.868 |
| 9 | `Cc1csc(N2CCCN(C(=O)c3occc3C)CC2)n1` | 1.567 | -10.67 | -13.63 | -5.5 | 10.34 | -4.231 |
| 10 | `Cc1ccc(CN2CCN(C(=O)c3ccc(Br)o3)CC2)cc1` | 8.629 | -24.36 | -28.7 | 39.17 | 17.65 | 4.196 |
| 11 | `O=C(Cc1ccc(F)cc1)N1CCCC(c2n[nH]c3nccnc23)C1` (stereo not shown) | 7.353 | -2.171 | -4.688 | 17.15 | 17.71 | - |
| 12 | `CSc1ccc(CN(C(=O)c2cc(C)[nH]c(=O)c2)C2CC2)cc1` | 0.4032 | -21.71 | -10.03 | 3.889 | 21.05 | -3.43 |
| 13 | `Cc1cc(NC(=O)Nc2ccc3c(ccn3CCN(C)C)c2)n(C)n1` | 0.2484 | -2.779 | 0.5659 | 8.741 | 23.81 | 2.808 |
| 14 | `Cc1cc(CN2CC[C@H]3C(=O)N(c4ccsc4)CCO[C@H]3C2)no1` | -0.3708 | -5.204 | -12 | - | 19 | -4.928 |
| 15 | `CC(CNCc1ccc(Cl)c(Cl)c1)Oc1ccccn1.Cl` (stereo not shown) | - | - | - | -0.8368 | - | - |
| 16 | `O=C(COc1ccccc1N1CCCC1)N1CCN[C@H]2CS(=O)(=O)C[C@H]21` | 3.433 | 9.057 | 10.31 | - | 42.62 | 4.134 |
| 17 | `O=C(CCCOc1ccc(F)cc1F)N1CCCC(n2cccn2)C1` (stereo not shown) | 3.704 | -3.559 | -38.48 | -6.255 | 15.18 | -7.41 |
| 18 | `Cc1cc(NCCOCCS(C)(=O)=O)nc2ccccc12` | 5.38 | 1.433 | -13.38 | 4.962 | 3.896 | -3.349 |
| 19 | `O=C(c1nn[nH]c1Nc1ccc(Cl)cc1)N1CCCCCC1` | 4.046 | -9.858 | -8.434 | 1.462 | 16.07 | 1.795 |
| 20 | `CS(=O)(=O)c1ccc2c(c1)N(C(=O)Cc1cccc(F)c1)CCC2` | -5.785 | -3.012 | -1.326 | 3.136 | 5.333 | -5.899 |
| 21 | `Cn1cnnc1C1CCN(C(=O)c2cc(-c3ccccc3)on2)CC1` | 0.7282 | 8.991 | 8.16 | 31.21 | 2.381 | 0.576 |
| 22 | `CN(Cc1nnc2n1CCC2)S(=O)(=O)c1cc(Br)ccc1Br` | 3.23 | -33.58 | 11.25 | -4.76 | 15.87 | 1.321 |
| 23 | `Cn1ccc2ccc(C(=O)N3CC[C@@]4(O)CCCC[C@H]4C3)cc21` | -2.02 | -11.4 | 11.27 | - | 7.895 | 0.4902 |
| 24 | `Cc1cccc(C2CCCN2C(=O)CCS(C)(=O)=O)c1C` (stereo not shown) | 4.232 | -10.28 | -2.218 | -2.132 | 11.29 | -0.3673 |
| 25 | `CCn1cc2c(n1)C(COCC1CC1)CN(c1ccc(C)nn1)C2` (stereo not shown) | 14.17 | -37.43 | 10.65 | -12.06 | 21.37 | -6.135 |
| 26 | `CN(CC1CCCCO1)c1ncnc2cc(F)ccc12` (stereo not shown) | 1.316 | -6.903 | 8.712 | 16.14 | 4.918 | -0.7322 |
| 27 | `Cc1nc(C)n(CC2CCCN2CC(=O)Nc2cccnc2)n1` (stereo not shown) | -1.276 | -7.594 | 1.209 | -7.78 | 18.52 | 0.2546 |
| 28 | `CN(C)C(CNC(=O)N(Cc1ccco1)C1CC1)c1cccs1` (stereo not shown) | - | -33.41 | -1.614 | 7.443 | 8.571 | -2.167 |
| 29 | `CC(C)C(=O)N1CCCC2(CC(C(=O)NCc3cccnc3)=NO2)C1.O=C(O)C(F)(F)F` (stereo not shown) | - | - | - | -3.268 | - | - |
| 30 | `CC1=C(c2ccc(C(C)C)cc2)S(=O)(=O)N=C1N1CCc2ccccc21` | 1.564 | -11.14 | 17 | 3.593 | 0 | 1.614 |

Once more, the final 3:

SMILES,A,B,C,D,E,F
CN(C)C(CNC(=O)N(Cc1ccco1)C1CC1)c1cccs1 (stereo not shown),-,-33.41,-1.614,7.443,8.571,-2.167
CC(C)C(=O)N1CCCC2(CC(C(=O)NCc3cccnc3)=NO2)C1.O=C(O)C(F)(F)F (stereo not shown),-,-,-,-3.268,-,-
CC1=C(c2ccc(C(C)C)cc2)S(=O)(=O)N=C1N1CCc2ccccc21,1.564,-11.14,17,3.593,0,1.614